Measured values reported in PubChem BioAssay AID504467 (National Center for Advancing Translational Sciences (NCATS), 2011).
Out of some 330,000 compounds screened, about 7,700 (2.3%) were called active. The inconclusive results got no clear call from the source; some entries with a clear call stand among them for comparison. The call rests on the fitted dose curve; in most records, active means well fitted inhibition curve with a large enough effect; inconclusive means small, poorly fitted or top-dose-only effect, or effect the other way; inactive means flat fitted curve, though single readings scatter. Where the call is inconclusive, the potency comes from a doubtful curve fit.

test: qHTS screen for small molecules that inhibit ELG1-dependent DNA repair in human embryonic kidney (HEK293T) cells expressing luciferase-tagged ELG1; settings: HEK293T ELG1-luciferase reporter, luminescence, 16 h, DNA damage induced by 5-fluorouridine; activity change, negative = inhibition: at 46.1 µM (top of the series); further: nearly all actives have a fitted effect of over 55% in size
In short: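 Quantitative HTS, concentration-response format. 2,000 cells/well co-treated with 5-fluorouridine and compound, 16 hr in 5% CO2 at 37 °C; ONE-Glo luminescence read after 30 min.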
On the % scale 0 is the no-effect control and ±100 the full control effect; potency means the concentration at half of the fitted maximal effect.

Question: With `COc1ccc(F)c(CN(C)CC2CCCN(CCc3ccc(F)cc3)C2)c1` (stereo unspecified) as the compound, how does the “activity change, negative = inhibition” value read?
Answer: Its value is inactive: -10.5%.

Question: Which Potency does the source give for `Cc1ccc(-n2c(C)c(C)c3c(NCCCO)ncnc32)cc1` here?
Answer: Its Potency is inconclusive: 18.3 µM [activator, partial curve].

Question: With `O=c1c(Cl)c(N2CCN(c3ccc(F)cc3)CC2)cnn1-c1nc2ccccc2s1` as the compound, how does the Potency read?
Answer: The Potency was inconclusive: 10.3 µM [activator, partial curve].

Question: With `CCCc1cc(=O)oc2cc(OCC(=O)NCCc3c[nH]c4ccc(OC)cc34)ccc12` as the compound, how does the Potency read?
Answer: Its Potency is inconclusive: 2.91 µM [inhibitor, partial curve].

Question: Which Potency does the source give for `Cn1c(=O)c(NC2CCCCC2)c2c3c(cccc31)C(=O)c1ccccc1-2` here?
Answer: Its Potency is active: 18.3 µM.

Question: Which “activity change, negative = inhibition” value does the source give for `COc1cccc(/C=C2\SC(=S)N(CCCC(=O)NC3=NCCS3)C2=O)c1` here?
Answer: The value was inactive: 3.39%.

Question: For `COc1ccc(CNC(=O)N2CCN(c3ccc(F)cc3)CC2)cc1`, which “activity change, negative = inhibition” value is on record?
Answer: The value was inactive: -13.5%.

Question: For `COc1ccc(/C=N/NC(=O)CSc2ccccn2)cc1OC`, which Potency is on record?
Answer: The Potency was inconclusive: 16.4 µM [activator, partial curve].

Question: Which Potency does the source give for `O=C(CSc1nc2ccccc2[nH]1)Nc1ccc2c(c1)OCCO2` here?
Answer: Its Potency is inconclusive: 20.6 µM [activator, partial curve, poor fit].

Question: Which Potency does the source give for `Cc1cc(-c2ccc(C(C)C)c(S(=O)(=O)N3CCC(C)CC3)c2)on1` here?
Answer: The Potency was inconclusive: 29.1 µM [inhibitor, single point].

Question: With `Cc1nn(-c2ccccc2)c(Cl)c1C(=O)OCC(=O)N(C)c1c(N)n(Cc2ccccc2)c(=O)[nH]c1=O` as the compound, how does the “activity change, negative = inhibition” value read?
Answer: Its value is inactive: 1.27%.

Question: For `CC(C)C(=O)N1CCN(c2ccc(NC(=O)c3cccs3)cc2Cl)CC1`, which Potency is on record?
Answer: Its Potency is active: 11.6 µM.

Question: For `Cc1ccc(CNC(=S)Nc2ccc(OC(F)F)cc2C)cc1`, which “activity change, negative = inhibition” value is on record?
Answer: The value was inactive: 1.17%.

Question: For `CCCn1nc([N+](=O)[O-])c(C(C#N)c2nc3ccccc3s2)c(Cl)c1=O` (stereo unspecified), which Potency is on record?
Answer: The Potency was active: 18.4 µM.

Question: Which Potency does the source give for `COc1ccc2c(c1OC)C(=O)N1c3ccccc3C(=O)N(c3ccccc3)C21` (stereo unspecified) here?
Answer: The Potency was inconclusive: 1.12 µM [inhibitor, full curve, poor fit].

Question: Which Potency does the source give for `COc1ccc(NC(=O)CCCn2c(=O)c3sccc3n(Cc3ccc(C)cc3C)c2=O)cc1` here?
Answer: The Potency was inconclusive: 25.9 µM [inhibitor, single point].

Question: Which Potency does the source give for `Cc1cc(N2CCOCC2)nc2cc(O)ccc12` here?
Answer: The Potency was inconclusive: 20.6 µM [activator, partial curve].

Question: Which Potency does the source give for `COc1cc(/C=N/NC(=O)c2nc(C)cc(C)n2)ccc1O` here?
Answer: The Potency was inconclusive: 20.6 µM [activator, single point].

Question: For `CC(=O)Cc1cc(O)c2ccccc2c1OC(=O)c1ccc(Br)cc1`, which Potency is on record?
Answer: Its Potency is inconclusive: 29.1 µM [inhibitor, single point].

Question: For `Cc1cc(C)n(-c2ccc(C(=O)Nc3cc(S(=O)(=O)N(C)C)ccc3Cl)cc2)n1`, which Potency is on record?
Answer: The Potency was inconclusive: 23.1 µM [inhibitor, partial curve].

Question: Which Potency does the source give for `CCN(c1ccc(NC(=O)c2ccc(Cl)nc2)cc1)C(C)C` here?
Answer: Its Potency is inconclusive: 16.4 µM [inhibitor, partial curve, poor fit].

Question: Which Potency does the source give for `Cc1cccc(C(=O)Nc2ccc3ccccc3c2)c1` here?
Answer: The Potency was inconclusive: 1.64 µM [activator, full curve].

Question: With `CCc1ccc2[nH]c(=O)c(Cc3ccccc3)c(O)c2c1` as the compound, how does the “activity change, negative = inhibition” value read?
Answer: Its value is inactive: -6.81%.

Question: With `Cc1cccc(Nc2nc(NCc3ccco3)nc(N)c2[N+](=O)[O-])c1` as the compound, how does the Potency read?
Answer: Its Potency is inconclusive: 23.1 µM [inhibitor, single point].

Question: With `COc1cccc(-c2noc(-c3ccoc3C)n2)c1` as the compound, how does the Potency read?
Answer: Its Potency is inconclusive: 16.4 µM [activator, partial curve].

Question: Which Potency does the source give for `COc1cccc(CNC(=O)c2cccs2)c1` here?
Answer: Its Potency is inconclusive: 23.1 µM [activator, partial curve, poor fit].

Question: Which “activity change, negative = inhibition” value does the source give for `Cc1cccc(NS(=O)(=O)c2ccc(C(=O)NCC3(N4CCCCC4)CCCCC3)cc2)c1C` here?
Answer: Its value is inactive: 16.3%.

Question: With `O=C(N/N=C/c1ccncc1)c1ccc(NC(=O)c2cccc(Cl)c2)cc1` as the compound, how does the Potency read?
Answer: Its Potency is inconclusive: 6.51 µM [activator, single point].

Question: For `CC1CCCC2(C1)NC(=S)c1c(sc3c1CCCC3)N2` (stereo unspecified), which Potency is on record?
Answer: The Potency was inconclusive: 16.4 µM [activator, partial curve].

Question: With `Cc1ccc(C(=O)Nc2cccnc2Oc2ccc(Cl)cc2)cc1` as the compound, how does the Potency read?
Answer: The Potency was inconclusive: 23.1 µM [inhibitor, single point].

Question: For `CC(=O)N1c2ccc(S(=O)(=O)N3CCC(C(=O)NCc4ccc(N(C)C)cc4)CC3)cc2CC1C` (stereo unspecified), which Potency is on record?
Answer: Its Potency is inconclusive: 18.3 µM [inhibitor, partial curve].

Question: Which Potency does the source give for `O=C(NCCC1=CCCCC1)C1CCCN(c2nc3ccccc3o2)C1` (stereo unspecified) here?
Answer: The Potency was inconclusive: 29.1 µM [inhibitor, single point].

Question: With `O=C(CN1CCN(S(=O)(=O)c2ccccc2)CC1)Nc1ccccc1C(=O)c1ccccc1` as the compound, how does the Potency read?
Answer: Its Potency is inconclusive: 16.4 µM [inhibitor, partial curve, poor fit].

Question: For `Cc1noc(C)c1C(=O)OCC(=O)NC(=O)NC12CC3CC(CC(C3)C1)C2`, which Potency is on record?
Answer: Its Potency is inconclusive: 11.2 µM [activator, partial curve].

Question: With `CCN1CCN(Cc2ccc(NC(=O)c3ccc(C)c(NC(=O)c4nccnc4N)c3)cc2C(F)(F)F)CC1` as the compound, how does the Potency read?
Answer: Its Potency is inconclusive: 1.64 µM [inhibitor, full curve].

Question: For `CC(C)(C)c1ccc(-c2nnc(SCC(=O)NC3CC3)o2)cc1`, which Potency is on record?
Answer: The Potency was inconclusive: 18.3 µM [activator, partial curve].

Question: For `CC(=O)NCCc1nc2cc(NC(=O)c3cccc([N+](=O)[O-])c3)ccc2n1C`, which Potency is on record?
Answer: The Potency was inconclusive: 18.3 µM [activator, partial curve].

Question: With `O=C(CCCN1C(=O)/C(=C\c2ccccc2)SC1=S)Nc1ccc(O)cc1` as the compound, how does the Potency read?
Answer: Its Potency is inconclusive: 18.3 µM [inhibitor, single point].

Question: For `Cc1cc(=O)oc2cc(OCCSCCN3CCOCC3)ccc12`, which Potency is on record?
Answer: The Potency was inconclusive: 6.51 µM [activator, single point].

Question: With `O=C(COc1ncnc2ccccc12)Nc1ccc(Cl)c(S(=O)(=O)N2CCOCC2)c1` as the compound, how does the Potency read?
Answer: The Potency was inconclusive: 18.3 µM [inhibitor, single point].

Question: For `Nc1ccc(S(=O)C(F)(F)F)cc1` (stereo unspecified), which “activity change, negative = inhibition” value is on record?
Answer: Its value is inactive: 4.73%.

Question: With `O=C(Cn1cnc2c(cnn2-c2ccc(F)cc2)c1=O)N1CCN(c2ccccc2F)CC1` as the compound, how does the Potency read?
Answer: Its Potency is active: 18.4 µM.

Question: With `CCc1ccc(-c2cc3c(=O)n(CC(=O)NCc4ccccc4F)ncn3n2)cc1` as the compound, how does the Potency read?
Answer: The Potency was inconclusive: 29.1 µM [activator, single point].

Question: Which Potency does the source give for `C=CCN=c1scc(-c2ccccc2)n1/N=C/c1ccccn1` here?
Answer: Its Potency is inconclusive: 5.8 µM [activator, partial curve].

Question: Which Potency does the source give for `O=C(/C=C/c1ccc([N+](=O)[O-])cc1)N1CCN(S(=O)(=O)c2ccccc2)CC1` here?
Answer: The Potency was inconclusive: 25.9 µM [inhibitor, single point].

Question: With `CCN(CCCNC(=O)Cn1ncc2c(=O)oc3ccccc3c21)c1cccc(C)c1` as the compound, how does the Potency read?
Answer: The Potency was inconclusive: 11.6 µM [inhibitor, partial curve].

Question: Which Potency does the source give for `Cc1ccc(OCC(=O)N/N=C\c2ccc(-c3cccc(C(=O)O)c3)o2)c(C)c1` here?
Answer: The Potency was inconclusive: 18.4 µM [activator, single point].

Question: With `Cc1ccc(-c2nc(C(=O)NCC3CCCO3)cc3c2[nH]c2ccccc23)cc1` (stereo unspecified) as the compound, how does the Potency read?
Answer: Its Potency is inconclusive: 4.61 µM [inhibitor, single point].

Question: For `CCCN1C(=O)/C(=C/c2ccc(C)o2)SC1=Nc1ccc(OCC)cc1`, which “activity change, negative = inhibition” value is on record?
Answer: The value was inactive: -1.46%.

Question: For `Cc1cc(C)n(CCC(=O)N/N=C/c2ccccc2O)n1`, which Potency is on record?
Answer: The Potency was inconclusive: 20.6 µM [inhibitor, single point].

Question: With `O=C(Cn1c(=O)n(Cc2ccco2)c(=O)c2ccccc21)Nc1cccc(Cl)c1` as the compound, how does the Potency read?
Answer: Its Potency is inconclusive: 20.6 µM [inhibitor, single point].

Question: For `CCN(CC(=O)Nc1c(F)cccc1F)C(=O)/C=C/c1ccc(C)cc1`, which Potency is on record?
Answer: Its Potency is inconclusive: 18.3 µM [activator, partial curve].

Question: Which Potency does the source give for `Cc1noc(C)c1NC(=O)N(C)C[C@H]1Oc2c(NC(=O)c3ccncc3)cccc2C(=O)N([C@H](C)CO)C[C@@H]1C` here?
Answer: Its Potency is inconclusive: 29.1 µM [activator, single point].

Question: With `COc1cccc(NC(=O)Cc2c(O)c3ccccc3[nH]c2=O)c1` as the compound, how does the “activity change, negative = inhibition” value read?
Answer: Its value is inactive: 1.73%.

Question: With `CCN1CCc2nc(NC(=O)Cc3ccc4c(c3)OCCO4)sc2C1` as the compound, how does the “activity change, negative = inhibition” value read?
Answer: The value was inactive: 9.11%.

Question: For `O=C(O)c1cc(Br)ccn1`, which “activity change, negative = inhibition” value is on record?
Answer: Its value is inactive: -6.96%.

Question: Which Potency does the source give for `CCN(CC(=O)NC1CCS(=O)(=O)C1)S(=O)(=O)c1ccc(Cl)cc1C(F)(F)F` (stereo unspecified) here?
Answer: The Potency was inconclusive: 20.6 µM [activator, partial curve, poor fit].

Question: Which Potency does the source give for `CCn1c(=NC(=O)CS(=O)(=O)c2ccccc2)sc2cccc(OC)c21` here?
Answer: Its Potency is inconclusive: 29.1 µM [inhibitor, single point].

Question: With `CC(C)Oc1ccc(C(CC(=O)O)NC(=O)C(Sc2ccccc2)c2ccccc2)cc1` (stereo unspecified) as the compound, how does the “activity change, negative = inhibition” value read?
Answer: The value was inactive: 4.17%.

Question: For `COC(=O)c1ccccc1NC(=O)C1(S(=O)(=O)c2ccc(Cl)cc2)CC1`, which Potency is on record?
Answer: The Potency was inconclusive: 3.66 µM [inhibitor, single point].

Question: With `CCCCC(O)(CCCC)C(=O)NN(C(=O)CCl)c1ccccc1` as the compound, how does the Potency read?
Answer: Its Potency is inconclusive: 23.1 µM [inhibitor, partial curve].

Question: Which Potency does the source give for `CSc1ccc(CCNC(=O)c2ccc(CS(=O)Cc3ccccc3Cl)o2)cc1` (stereo unspecified) here?
Answer: The Potency was inconclusive: 29.1 µM [inhibitor, partial curve, poor fit].

Question: With `CC(C)C(NC(=O)c1ccc2c(c1)OCO2)C(=O)N/N=C\c1ccco1` (stereo unspecified) as the compound, how does the Potency read?
Answer: The Potency was inconclusive: 0.651 µM [inhibitor, single point].

Question: Which Potency does the source give for `N/C(=N\O)c1ccc([N+](=O)[O-])s1` here?
Answer: The Potency was inconclusive: 20.6 µM [inhibitor, single point].

Question: Which Potency does the source give for `NC(=O)CSc1nc2scc(-c3ccc(Cl)cc3)c2c(=O)n1Cc1ccccc1` here?
Answer: Its Potency is active: 16.4 µM.
